No constants are given. Whether binding was seen depends on the method and setting. In cells and extracts the contact can be indirect. Some results given as binding are weak or reduced against the parent protein; the word gives no strength. Tags and fused reporters may be left off the sequences shown.
Legend:
[1] = biological target: T1, Ten1-Flag (fission yeast Ten1) (S. pombe) (UniProt P0C5Y7); test: co-IP; extracts of exponentially growing wt S. pombe cells; lysis in IP buffer (HEPES pH 7.5, 150 mM NaCl, EDTA, Triton X-100, NP-40, DNase 10 U/ml); anti-Flag M2 overnight; three washes with IP buffer + 0.5 M NaCl; Western blot
T1 sequence: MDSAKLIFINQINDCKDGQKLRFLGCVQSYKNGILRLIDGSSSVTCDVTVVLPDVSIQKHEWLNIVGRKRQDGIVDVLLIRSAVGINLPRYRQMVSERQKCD

[2] = biological target: T2, Pol1-Flag (catalytic subunit of the DNA polymerase alpha complex, fission yeast) (S. pombe) (UniProt P28040); test: as above
T2 sequence: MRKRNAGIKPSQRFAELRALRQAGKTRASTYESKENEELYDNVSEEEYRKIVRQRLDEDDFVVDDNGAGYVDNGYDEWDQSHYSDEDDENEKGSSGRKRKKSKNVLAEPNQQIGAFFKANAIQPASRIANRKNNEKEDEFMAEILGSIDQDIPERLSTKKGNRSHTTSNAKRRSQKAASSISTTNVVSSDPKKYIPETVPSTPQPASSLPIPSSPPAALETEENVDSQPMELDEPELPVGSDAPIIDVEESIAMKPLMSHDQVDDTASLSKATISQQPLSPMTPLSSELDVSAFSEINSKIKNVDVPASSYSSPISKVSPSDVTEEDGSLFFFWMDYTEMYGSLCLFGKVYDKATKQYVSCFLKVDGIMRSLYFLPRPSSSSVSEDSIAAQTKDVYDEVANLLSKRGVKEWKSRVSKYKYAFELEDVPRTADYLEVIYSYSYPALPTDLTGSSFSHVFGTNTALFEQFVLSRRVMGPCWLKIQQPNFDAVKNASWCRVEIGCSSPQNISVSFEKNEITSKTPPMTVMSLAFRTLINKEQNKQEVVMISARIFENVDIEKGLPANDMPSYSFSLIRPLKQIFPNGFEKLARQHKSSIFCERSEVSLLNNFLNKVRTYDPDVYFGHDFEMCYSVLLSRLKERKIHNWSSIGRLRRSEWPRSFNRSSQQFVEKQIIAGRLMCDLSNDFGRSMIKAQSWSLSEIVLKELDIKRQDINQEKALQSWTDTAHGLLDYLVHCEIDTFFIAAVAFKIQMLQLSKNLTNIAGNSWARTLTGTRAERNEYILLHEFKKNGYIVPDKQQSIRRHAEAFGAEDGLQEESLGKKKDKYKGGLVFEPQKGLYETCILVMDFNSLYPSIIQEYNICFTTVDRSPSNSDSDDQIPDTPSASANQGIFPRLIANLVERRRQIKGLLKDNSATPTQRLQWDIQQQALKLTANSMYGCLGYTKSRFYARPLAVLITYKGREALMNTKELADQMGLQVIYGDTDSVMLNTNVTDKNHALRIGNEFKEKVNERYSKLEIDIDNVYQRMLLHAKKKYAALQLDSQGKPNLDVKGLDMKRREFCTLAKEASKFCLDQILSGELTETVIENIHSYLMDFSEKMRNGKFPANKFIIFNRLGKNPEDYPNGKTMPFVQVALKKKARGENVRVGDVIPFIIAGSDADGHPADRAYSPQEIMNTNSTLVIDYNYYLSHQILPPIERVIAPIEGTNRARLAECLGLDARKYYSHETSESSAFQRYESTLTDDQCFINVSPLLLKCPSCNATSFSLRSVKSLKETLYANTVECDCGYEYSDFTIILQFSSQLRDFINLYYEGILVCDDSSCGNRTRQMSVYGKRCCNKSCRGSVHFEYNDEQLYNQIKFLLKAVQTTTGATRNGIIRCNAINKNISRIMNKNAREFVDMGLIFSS

binding [1]: binds | binding [2]: binds
B1: Stn1-Myc (fission yeast Stn1, extracts of wt cells) (protein, UniProt Q0E7J7 1-325)
chain: MLENENQLTHQFPTLSRWNPMFISDVHKISFHPHLQRYIGFWMGFPIRWIQIVGYIAAIDIYEGKHVLTVDDCSGMVLRVVFIIQDDFSMSKRAISMSPGNVVCVFGKINSFRSEVELIAQSFEELRDPNDEWKAWQKRMRYKKNLTKISKNHHSIIRTPKKSYFPKDHAKELLKCIRQMCKLNVQAGFTIEELIIYLKAKELHLPLVHIFNVENEIVENCDGNHILALNFSLQTLLQHGRIVRKSNSVYMLVTSKDIIRFVIPLMASGLLEAHKVQSIVRDSNPMFITLPLSAIAKHICQFLLRTKGKWRQAKKYTWVRDNQFV
